Data taken from US20260008770A1, “CBL-B INHIBITORS AND METHODS OF USES THEREOF” (Insilico Medicine IP Limited, priority 2022, published 2026).
The match of structure and compound is tentative.

Amino acid sequences for entries named in this document (tags omitted).
UniProt Q13191, whole entry: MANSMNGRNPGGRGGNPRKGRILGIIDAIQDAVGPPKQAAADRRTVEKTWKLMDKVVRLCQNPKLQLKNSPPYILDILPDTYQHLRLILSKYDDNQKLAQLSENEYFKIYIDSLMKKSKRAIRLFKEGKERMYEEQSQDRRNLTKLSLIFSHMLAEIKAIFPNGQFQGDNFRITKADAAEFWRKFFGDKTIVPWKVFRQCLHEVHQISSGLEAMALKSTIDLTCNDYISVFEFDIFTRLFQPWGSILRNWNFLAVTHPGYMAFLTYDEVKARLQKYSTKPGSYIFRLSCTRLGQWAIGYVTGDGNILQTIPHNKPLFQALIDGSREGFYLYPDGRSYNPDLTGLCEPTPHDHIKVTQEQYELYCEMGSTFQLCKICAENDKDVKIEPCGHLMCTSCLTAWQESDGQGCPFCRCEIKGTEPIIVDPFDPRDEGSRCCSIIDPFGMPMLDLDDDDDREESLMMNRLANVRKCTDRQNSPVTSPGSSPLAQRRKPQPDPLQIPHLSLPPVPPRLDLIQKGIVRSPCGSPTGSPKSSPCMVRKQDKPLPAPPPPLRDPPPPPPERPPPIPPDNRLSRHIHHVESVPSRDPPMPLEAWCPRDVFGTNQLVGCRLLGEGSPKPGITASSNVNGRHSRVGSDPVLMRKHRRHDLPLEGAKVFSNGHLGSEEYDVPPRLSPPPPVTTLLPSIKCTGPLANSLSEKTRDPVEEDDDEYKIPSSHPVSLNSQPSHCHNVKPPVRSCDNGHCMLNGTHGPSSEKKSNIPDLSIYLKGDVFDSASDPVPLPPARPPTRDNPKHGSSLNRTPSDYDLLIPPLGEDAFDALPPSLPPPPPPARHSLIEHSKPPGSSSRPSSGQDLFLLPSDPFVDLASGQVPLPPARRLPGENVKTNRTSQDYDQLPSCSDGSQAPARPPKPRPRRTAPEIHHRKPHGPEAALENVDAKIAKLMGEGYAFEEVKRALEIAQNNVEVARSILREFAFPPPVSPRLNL

Molecular target: Cbl-b protein (CBL-B, GST-Tag) (Homo sapiens (Human), UniProt Q13191)
Assay: HTRF based binding assay, affinity to Cbl-b protein
Settings: fluorescence labeled Cbl-b binding probe

## CC1CC(c2ccnc(-n3cnc4c(C(F)(F)F)cc(CN5CCC[C@H](C)C5)cc4c3=O)c2)(c2nncn2CF)C1 (stereo partly shown)
  IC50: < 20 nM
